# Measurements from PubChem BioAssay AID1347426 (Functional Genomics Laboratory (NCATS/FGL), 2020).
# About 1,400 (4.5%) of roughly 31,000 sequences were called active.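 The calls were made as follows: active = median seed-adjusted z-score above 1 or below -1; inactive = the rest.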 The list shows a part of the results.
# Experiment: Novel Modifiers of Survival Motor Neuron (SMN) Protein: Gene Identification via Genome-wide siRNA Screen;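 also: luminescence tracks full-length SMN protein made from the SMN2 reporter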
# Conditions: HEK293T SMN2-luciferase reporter, siRNA knockdown, 72 h; actives lie on both sides
# Method in brief: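 Luciferase signal, proportional to full-length SMN made from an SMN2 cDNA reporter in stable HEK293T cells, was read 72 h after siRNA reverse transfection. Values were expressed as MAD scores after non-targeting-control normalization and log10 conversion; seed analysis flagged off-targets.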
row,Sequence,median seed-adjusted z-score
1,GCACAACAGUUGGAUCAAATT against MARK1,inactive: 0.341
2,AGUACGCUUUGAAAACCAUTT against HMX2,inactive: -0.547
3,CUGGGUGCCUGAUACCUAUTT against GABRB2,inactive: 0.288
4,AGAAGGGACUGGACCCAUATT against COX5B,inactive: 0.45
5,GAGUAUAUCCUGUACAACATT against CTSH,inactive: -0.81
6,GGUCAUUGCUACGACAUCATT against UGCGL1,inactive: -0.391
7,CAGAUUACGUUUAUAAGAATT against ZNF274,inactive: 0.452
8,CAAUUUCGAUCAGACUACATT against GNAL,inactive: -0.178
9,GCUAUUAUCUAAGCACGAATT against ADAMTS20,active: 1.44
10,CCAACAAUCCCUACGACUATT against MYH6,inactive: 0
11,GCACAGCAACGCAACCUCATT against HIC1,inactive: 0.523
12,GAUCAGGUGCUGUUCCAUATT against DGAT2L3,inactive: 0.247
13,CUCCCUUAAUGAGCAAGGATT against GNB3,inactive: -0.373
14,GGGUGUAAGAGAACAUGAATT against PHOSPHO2,inactive: -0.247
15,CCAGUAAACAUAUCCGUCATT against KRT84,inactive: -0.645
16,CUAAGGAACUUUUACUUCATT against IFNB1,inactive: 0
17,CAUACUCAUUCUUGCAAUATT against PHOSPHO2,inactive: -0.247
18,GAGUCAGAUUAGUCAAUGUTT against FSD1L,inactive: 0.166
19,CGGUGAUCAUGGUUGCUCATT against TOMM40L,inactive: 0.12
20,GGAUGAGAAUAAUACUCGATT against SCG2,inactive: 0.155
21,GCUCAUCUACUACUAUUUATT against ALG11,inactive: 0.183
22,GCUGAGGCCUUGUACCAGATT against KRT78,inactive: 0.306
23,GACUCUCUGAGGUAGAAAATT against EPN3,inactive: 0.184
24,GGAGAGUUCGAAUUGCUCUTT against GSTZ1,inactive: -0.144
25,GCUAAGUUGCAUUCCGAAATT against EEA1,inactive: 0.0278
26,UCUGAUUACUUAUACUUCATT against ZNF366,inactive: 0.585
27,GUAUGGGCGACUAACCAGATT against ENTPD4,inactive: 0.324

# Taken from above:
# median seed-adjusted z-score with CUCCCUUAAUGAGCAAGGATT against GNB3 reads inactive: -0.373
# median seed-adjusted z-score with GAUCAGGUGCUGUUCCAUATT against DGAT2L3 reads inactive: 0.247
# median seed-adjusted z-score with GCACAACAGUUGGAUCAAATT against MARK1 reads inactive: 0.341

# Next part.

row,Sequence,median seed-adjusted z-score
1,CUCUAUCCCUGAGUACUUATT against PDXP,inactive: -0.302
2,CAGACUUUCUUAAGGCUAATT against ACVR2A,inactive: -0.22
3,CAGUGUAUCUUCAUAAGAUTT against TAF1L,inactive: 0.289
4,UGAUGUCCGUAGGCCUUAATT against KRT13,inactive: 0.101
5,CAUUUUGCCUAGAUAAAGATT against PGRMC2,inactive: -0.223
6,GGUUCUUGUGGUUUACCCATT against IL17RB,inactive: -0.464
7,CAAGAAACAUCAAAGCGAUTT against TADA2L,inactive: 0.0455
8,CUUAGACUGUUUCCACUUATT against PARK2,inactive: 0.146
9,CAGAAACGAUCUACAAGAATT against MEPCE,inactive: -0.35
10,GUGUUGCACAGAUGCGUGATT against AIP,inactive: 0.529
11,ACAUAAUAGCCAAACUAGATT against ZNF174,inactive: 0.035
12,GCAAACCUGUGACUUCCAATT against SYT10,inactive: 0
13,GCAUCAUGCUUCCCGAGAATT against LPAR2,inactive: 0.171
14,GACUAUUACCUGUACGGGATT against XYLT1,inactive: -0.274
15,CAGGUAUUCUGGUCAAUAUTT against ATL3,inactive: 0.201
16,GGAUGAACUUGUCUAUGCATT against ESRRG,inactive: -0.681
17,CCUUUACCCUAUCUUCACATT against ZNF708,inactive: 0.0562
18,UAAGUGUUGUGAGAAAUGATT against SLC25A2,inactive: 0.586
19,GGGUGUUUCUCUAUGAGAATT against P2RX1,inactive: 0.908
20,AUGGUUACCUGUUCACCUATT against SLC7A10,inactive: -0.732
21,GGAACAUUUUUGACGGAUUTT against SCN8A,inactive: 0
22,ACCUCAAAAAGGUUACUAUTT against CHN2,inactive: -0.478
23,GGAUAGGACUGGUGGAACATT against PLA1A,inactive: 0.197
24,ACUUGGAUCAUUUCCCUGATT against SLC13A5,inactive: 0
25,CAGAUGACAUCAAAAUGGATT against STX1B,inactive: 0.229
26,CAAUAUCUCUCGGAUCUAUTT against AMBP,inactive: -0.679
27,GGAUCUACAUGGGCUUCAATT against AVPR1B,inactive: -0.423
